Measurements as given in patent US7745587.
Changes are numbered by the printed parent chain. Results are given in words; binding and its absence hold for the method and conditions named. Binding can be weak; no strength is given.

B1: M0043-A09 Fab (Fab, V domains shown)
VH: EVQLLESGGGLVQPGGSLRLSCAASGFTFSFYDMTWVRQAPGKGLEWVSSIWSSGGVTDYADSVKGRFTISRDNSKNTLYLQMNSLRAEDTAVYYCTRASSGYYDAFDIWGQGTMVTVSS
VL: QSVLTQPPSVSKDLRQTATLTCTGNSNNVGYQGAAWLQQHQGHPPKVLSYRNNNRPSGISERFSASRSGNTASLTITGLQPEDEADYYCSAWDSSLTAWVFGGGTKLTVL
B2: M0041-E11 Fab (Fab, V domains shown)
VH: EVQLLESGGGLVQPGGSLRLSCAASGFTFSQYNMQWVRQAPGKGLEWVSGIVPSGGWTPYADSVKGRFTISRDNSKNTLYLQMNSLRAEDTAVYYCARGVRYGLDYWGQGTLVTVSS
VL: DIQMTQSPSSLSAFVGDRVIITCRASQDISVYVNWYQQSSGKAPKLLIYGASSLQSGVPSRFSGSGSGTDFTLTISSLQPEDFASYFCQQSYNLPFTFGGGTNVQIK
B3: M0032-B07 Fab (Fab, V domains shown)
VH: EVQLLESGGGLVQPGGSLRLSCAASGFTFSPYLMHWVRQAPGKGLEWVSSIYPSGGITQYADSVKGRFTISRDNSKNTLYLQMNSLRAEDTAVYYCARFFPSHRDYTAFDTWGRGTLVTVSS
VL: QSVLTQEPSLTVSPGGTVTLTCASNTGAVTSGSYANWFQQKPGLTPRALIYSGTNKYSWTPARFSGSLFGGKAALTLSGVLPEDEAEYYCLVYYGGVWVFGGGTKLTVL
B4: M0043-C03 Fab (Fab, V domains shown)
VH: EVQLLESGGGLVQPGGSLRLSCAASGFTFSYYAMDWVRQAPGKGLEWVSSIGSSGGDTVYADSVKGRFTISRDNSKNTLYLQMNSLRAEDTATYYCARDPRQPGVFDYWGQGTLVTVSS
VL: DIQMTQSPASLYLSPGERATLSCRASQSVSSNLAWYQQKPGQAPRLLIYGASTRATGIPARFSGSGSGTEFTLTISSLQSADFAVYYCQQYDNWPPLTFGGGTKVEIK
B5: M0043-G01 Fab (Fab, V domains shown)
VH: EVQLLESGGGLVQPGGSLRLSCAASGFTFSFYSMHWVRQAPGKGLEWVSGISSSGGVTKYADSVKGRFTISRDNSKNTLYLQMNSLRAEDTAVYYCARARSTRGFDYWGQGTLVTVSS
VL: DIQMTQSPSAMSASVGDRVTITCRASQGISSWLAWYQQKPGKAPKLLIYAASSLQSGVPSRFSGSGSGTDFTLTISSLQPEDFATYYCQQANSFPLTFGGGTKVEIK
B6: M0044-B03 Fab (Fab, V domains shown)
VH: EVQLLESGGGLVQPGGSLRLSCAASGFTFSQYHMMWVRQAPGKGLEWVSSIGSSGYTKYADSVKGRFTISRDNSKNTLYLQMNSLRAEDTAVYYCAGAVAGTGAFDYWGQGTLVTVSS
VL: B5 VL with A10S, M11V, G28N, S30Y, K39R, Q55H, N92K, L96V
B7: M0042-B07 Fab (Fab, V domains shown)
VH: EVQLLESGGGLVQPGGSLRLSCAASGFTFSPYSMFWVRQAPGKGLEWVSVIYPSGGGTIYADSVKGRFTISRDNSKNTLYLQMNSLRAEDTAVYYCARSRESCDADTCYQYFQEWGQGTLVTVSS
VL: DIQMTQSPLSLPVTPGEPASISCRSSQSLLHSNGYNYLDWYVQKPGQSPQLLIYLGSGRASGVPDRFSGSGSGTDFTLKINRVEAEDVGVYYCMQALQTPWTFGQGTKVEIK
B8: M0043-F01 Fab (Fab, V domains shown)
VH: EVQLLESGGGLVQPGGSLRLSCAASGFTFSKYSMYWVRQAPGKGLEWVSSISSSGGYTAYADSVKGRFTISRDNSKNTLYLQMNSLRAEDTAVYYCAIPWGSGSSWGQGTLVTVSS
VL: QSALTQPASVSGSPGQSITISCTGTSSDIGAYRYVSWYQQRPGKAPKLMIFDVTKRPSGVSNRFSGFKSGNTASLTISGLQAEDEADYYCSSFTSGSTFVFGTGTKVTVL
B9: M0041-H09 Fab (Fab, V domains shown)
VH: EVQLLESGGGLVQPGGSLRLSCAASGFTFSVYEMTWVRQAPGKGLEWVSGIGSSGGMTFYADSVKGRFTISRDNSKNTLYLQMNSLRAEDTAVYYCARIRYSGSYGWHYMDVWGKGTTVTVSS
VL: DIQMTQSPGTLSLSPGERATLSCRASQSLSGDYLAWYQQKIGQAPRLLIFGASRRPTGIPDRFSGSGSGTDFALTISRLEPEDFAVYYCQQYGSLITFGQGTRLEIK
B10: M0032-B09 Fab (Fab, V domains shown)
VH: EVQLLESGGGLVQPGGSLRLSCAASGFTFSIYKMVWVRQAPGKGLEWVSSIGSSGGHTRYADSVKGRFTISRDNSKNTLYLQMNSLRAEDTAVYYCARAPYYYYMDVWGKGTTVTVSS
VL: DIQMTQSPSSVSASVGDTVTITCRASQGISTWLAWYQHKPGKAPKLLIYAGPSLQSGVPSRFSGSGSGTEFTLTISSLHPEDFATYYCQQLNHYPMTFGQGTRLEIK

Each binder was assayed against human MMP-14 (human) (assay: phage display selection and phage ELISA screening on biotinylated MMP-14).

Row | binding | Binder
1 | binds | B1
2 | binds | B2
3 | binds | B3
4 | binds | B4
5 | binds | B5
6 | binds | B6
7 | binds | B7
8 | binds | B8
9 | binds | B9
10 | binds | B10
